PubChem BioAssay AID743454 | Peter MacCallum Cancer Centre | 2014
This is a random part of about 18,000 reagents. 450 of all reagents (2.5%) count as active. 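Single biological run; no consistent viability z cut-off exists, so the class columns, not z-scores, define the calls.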

- Assay: 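Genes whose loss kills vorinostat-resistant colon cancer cells under vorinostat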 (primary screen)
- Cell system: human HCT116-VR colon cancer cells, selected for vorinostat resistance
- Knock-down reagent: siRNA pool against human genes, 40 nM siRNA pool
- Timing: vorinostat for 24 h, read-out about 72 h after transfection
- Conditions: vorinostat at 2.5 µM final
- Read-out: 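Cell viability by CellTiter-Fluor and caspase 3/7 activity by luminescence, each scaled to mock wells per plate, duplicates averaged, then robust z-scored over all plates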
- Scale: viability robust z-score: higher = more viable cells than screen typical; caspase robust z-score: higher = more caspase 3/7 activity than screen typical
- Active means: 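Hits are knock-downs in viability class RV1/RV2 or caspase class CA1/CA2, excluding ones that killed cells in the no-drug cell-count arm; hits then retested with single siRNAs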

SNRPE (small nuclear ribonucleoprotein polypeptide E)
- viability hit class: RV2 (reduced viability)
- caspase hit class: no change
- viability robust z-score: -3.27
- caspase robust z-score: 0.04
- call: active

GTF2F2 (general transcription factor IIF subunit 2)
- viability hit class: no change
- caspase hit class: no change
- viability robust z-score: 1.17
- caspase robust z-score: 1.77
- call: inactive

ITPRIPL1 (ITPRIP like 1)
- viability hit class: no change
- caspase hit class: no change
- viability robust z-score: 0.68
- caspase robust z-score: -0.39
- call: inactive

LELP1 (late cornified envelope like proline rich 1)
- viability hit class: no change
- caspase hit class: no change
- viability robust z-score: -0.01
- caspase robust z-score: -0.6
- call: inactive

UNC13D (unc-13 homolog D)
- viability hit class: no change
- caspase hit class: no change
- viability robust z-score: -0.59
- caspase robust z-score: -0.73
- call: inactive

DPP4 (dipeptidyl peptidase 4)
- viability hit class: no change
- caspase hit class: no change
- viability robust z-score: -0.9
- caspase robust z-score: -0.98
- call: inactive

RB1 (RB transcriptional corepressor 1)
- viability hit class: no change
- caspase hit class: no change
- viability robust z-score: -0.19
- caspase robust z-score: 0.05
- call: inactive

RRP1 (ribosomal RNA processing 1)
- viability hit class: no change
- caspase hit class: no change
- viability robust z-score: -1.21
- caspase robust z-score: 0.24
- call: inactive

FFAR1 (free fatty acid receptor 1)
- viability hit class: no change
- caspase hit class: no change
- viability robust z-score: 0.8
- caspase robust z-score: 0.48
- call: inactive

RABGGTB (Rab geranylgeranyltransferase subunit beta)
- viability hit class: no change
- caspase hit class: no change
- viability robust z-score: 1.18
- caspase robust z-score: -0.74
- call: inactive

ABCG8 (ATP binding cassette subfamily G member 8)
- viability hit class: no change
- caspase hit class: no change
- viability robust z-score: 0.57
- caspase robust z-score: 0.54
- call: inactive

SEPTIN6 (septin 6)
- viability hit class: no change
- caspase hit class: no change
- viability robust z-score: -0.76
- caspase robust z-score: 1.15
- call: inactive

Continued; the last 2 above are carried over.
ABCG8 (ATP binding cassette subfamily G member 8)
- viability hit class: no change
- caspase hit class: no change
- viability robust z-score: 0.57
- caspase robust z-score: 0.54
- call: inactive

SEPTIN6 (septin 6)
- viability hit class: no change
- caspase hit class: no change
- viability robust z-score: -0.76
- caspase robust z-score: 1.15
- call: inactive

RBBP7 (RB binding protein 7, chromatin remodeling factor)
- viability hit class: no change
- caspase hit class: no change
- viability robust z-score: 0.15
- caspase robust z-score: 0.4
- call: inactive

ADH4 (alcohol dehydrogenase 4 (class II), pi polypeptide)
- viability hit class: no change
- caspase hit class: no change
- viability robust z-score: -1.09
- caspase robust z-score: 0.64
- call: inactive

MFRP (membrane frizzled-related protein)
- viability hit class: no change
- caspase hit class: no change
- viability robust z-score: 0.34
- caspase robust z-score: -0.09
- call: inactive

MIER2 (MIER family member 2)
- viability hit class: no change
- caspase hit class: no change
- viability robust z-score: 0.21
- caspase robust z-score: -0.94
- call: inactive

CTSG (cathepsin G)
- viability hit class: no change
- caspase hit class: no change
- viability robust z-score: 0.56
- caspase robust z-score: -0.74
- call: inactive

RPL36AL (ribosomal protein L36a like)
- viability hit class: no change
- caspase hit class: no change
- viability robust z-score: -2.37
- caspase robust z-score: 0.42
- call: inactive

NMI (N-myc and STAT interactor)
- viability hit class: no change
- caspase hit class: no change
- viability robust z-score: -0.18
- caspase robust z-score: -0.68
- call: inactive

SCN7A (sodium voltage-gated channel alpha subunit 7)
- viability hit class: no change
- caspase hit class: no change
- viability robust z-score: -0.33
- caspase robust z-score: 0.61
- call: inactive

ERBIN (erbb2 interacting protein)
- viability hit class: no change
- caspase hit class: no change
- viability robust z-score: 2.26
- caspase robust z-score: -0.17
- call: inactive
